Measurements from patent publication US6790862B2 (priority 1999, dated 2004).
Some of these results come from one statement about several compounds together.

Test system: b-tubulin in HL-60 cells
Assay: in situ tubulin polymerization, immunoblot of soluble and particulate fractions
Assay type: cell-based, human
Settings: HL-60, 1 mM, 20 min time course
Text: A simple in situ cellular assay as described by Giannakakou P., Gussio R., Nogales E., Downing K. H., Zaharevitz D., Bollbuck B., Poy G., Sackett D., Nicolaou K. C., Fojo T., Proc. Nat. Acad. Sci. (USA) (2000), 97, 2904-2909 was used in which the shift in tubulin from depolymerized to polymerized forms was followed by electrophoresis and Western blotting of centrifuged particulate and cytosolic fractions. To summarize, 2×10^6 untreated and drug-exposed HL-60 cells were lysed by exposure for 5 min at 37° C. to […] of hypotonic buffer (1 mM MgCl2, 2 mM EGTA, 1% Nonidet P-40, 2 mM phenylmethylsulfonyl fluoride, 1 mg/mL aprotinin, 2 mg/mL pepstatin, and 20 mM Tris-HCl, pH 6.8) and the particulate fraction separated from the soluble cytosolic fraction by high speed centrifugation for 10 min in a bench-top centrifuge. Samples labeled ‘0 min’ received drug immediately before collection of the cells. The processing of the cells to the critical centrifugation step required approximately 30 min. The pellet was dissolved in […] of sample buffer (8 M urea, 4% CHAPS, 3 M thiourea, and 40 mM DTT). Twenty mL of loading buffer was added to each […] sample, the samples were vortexed and then boiled for 5 min. […]

How did the “time by which almost all detectable tubulin was converted to the polymerized form” value turn out when CCC(/C=C(/C)C1C[C@H](OC)C[C@@H](O)C(C)(C)[C@]2(O)OC(CC(OC)C2O)C[C@H](OC)[C@@H](O)C(=O)O1)CO (stereo partly shown) [Peloruside A] was run?
Its value is ≤ 5 min.
